For 1 substance, binding results are on record in patent publication US20210139598A1.

By UniProt entry, the sequences of proteins in these tests, tags left out. Where a name states a change or a piece, a line headed by the entry shows the natural chain unless it says otherwise. Residues count along the entry.
UniProt P25942: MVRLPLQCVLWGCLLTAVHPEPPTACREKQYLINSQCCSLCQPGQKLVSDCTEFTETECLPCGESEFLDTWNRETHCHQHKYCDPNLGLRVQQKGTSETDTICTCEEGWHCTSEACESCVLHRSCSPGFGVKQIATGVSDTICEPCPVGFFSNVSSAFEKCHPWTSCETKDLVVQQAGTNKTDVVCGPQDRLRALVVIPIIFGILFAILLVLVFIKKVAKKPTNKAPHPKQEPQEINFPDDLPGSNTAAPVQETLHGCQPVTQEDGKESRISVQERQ
UniProt P27548, residues 112-260: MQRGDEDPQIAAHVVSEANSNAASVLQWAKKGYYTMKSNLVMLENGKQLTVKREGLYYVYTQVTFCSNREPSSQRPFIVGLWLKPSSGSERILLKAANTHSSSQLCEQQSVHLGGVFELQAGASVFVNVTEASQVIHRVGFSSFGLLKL

Results are given in words; binding and its absence hold for the method and conditions named. Some entries that bind do so weakly or less than the wild type.

Assay [1] has as its target human CD40, immobilized (SPR of FIG. 2) (human) (UniProt P25942). Kind of assay: SPR, immobilized human CD40, soluble CD40L (FIG. 2).
The target is the same in assay [2]. Kind of assay: SPR, immobilized human CD40, soluble CD40L titrated from 33 to 0.5 nM. In general terms: Surface plasmon resonance follows binding to a sensor surface in real time, without labels.

On to “mouse CD40L (from UniProt P27548 112-260) (ligand)”, for which the binding result in assay [1] and in assay [2] was “binds” in each case.
